Assay results from article PMC6109062, “The dual methyltransferase METTL13 targets N terminus and Lys55 of eEF1A and modulates codon-specific translation rates” (Nature Communications, 2018).
Results are given in words; binding and its absence hold for the method and conditions named. Binding seen in cells or lysates may run through a third protein. A yes stands for co-enrichment or nearness to the bait. Other partners may have been found.

Molecular target: affinity-tagged WT eEF1A (human)
Assay: affinity purification with mass spectrometry; affinity-tagged WT or methylation-deficient eEF1A overexpressed in HEK-293 cells; co-purifying proteins quantified

binding | Binder
binds | EEF1B2 (protein, UniProt P24534 1-225) MGFGDLKSPAGLQVLNDYLADKSYIEGYVPSQADVAVFEAVSSPPPADLCHALRWYNHIKSYEKEKASLPGVKKALGKYGPADVEDTTGSGATDSKDDDDIDLFGSDDEEESEEAKRLREERLAQYESKKAKKPALVAKSSILLDVKPWDDETDMAKLEECVRSIQADGLVWGSSKLVPVGYGIKKLQIQCVVEDDKVGTDMLEEQITAFEDYVQSMDVAAFNKI
binds | VARS (enzyme, UniProt P26640 1-1264) MSTLYVSPHPDAFPSLRALIAARYGEAGEGPGWGGAHPRICLQPPPTSRTPFPPPRLPALEQGPGGLWVWGATAVAQLLWPAGLGGPGGSRAAVLVQQWVSYADTELIPAACGATLPALGLRSSAQDPQAVLGALGRALSPLEEWLRLHTYLAGEAPTLADLAAVTALLLPFRYVLDPPARRIWNNVTRWFVTCVRQPEFRAVLGEVVLYSGARPLSHQPGPEAPALPKTAAQLKKEAKKREKLEKFQQKQKIQQQQPPPGEKKPKPEKREKRDPGVITYDLPTPPGEKKDVSGPMPDSYSPRYVEAAWYPWWEQQGFFKPEYGRPNVSAANPRGVFMMCIPPPNVTGSLHLGHALTNAIQDSLTRWHRMRGETTLWNPGCDHAGIATQVVVEKKLWREQGLSRHQLGREAFLQEVWKWKEEKGDRIYHQLKKLGSSLDWDRACFTMDPKLSAAVTEAFVRLHEEGIIYRSTRLVNWSCTLNSAISDIEVDKKELTGRTLLSVPGYKEKVEFGVLVSFAYKVQGSDSDEEVVVATTRIETMLGDVAVAVHPKDTRYQHLKGKNVIHPFLSRSLPIVFDEFVDMDFGTGAVKITPAHDQNDYEVGQRHGLEAISIMDSRGALINVPPPFLGLPRFEARKAVLVALKERGLFRGIEDNPMVVPLCNRSKDVVEPLLRPQWYVRCGEMAQAASAAVTRGDLRILPEAHQRTWHAWMDNIREWCISRQLWWGHRIPAYFVTVSDPAVPPGEDPDGRYWVSGRNEAEAREKAAKEFGVSPDKISLQQDEDVLDTWFSSGLFPLSILGWPNQSEDLSVFYPGTLLETGHDILFFWVARMVMLGLKLTGRLPFREVYLHAIVRDAHGRKMSKSLGNVIDPLDVIYGISLQGLHNQLLNSNLDPSEVEKAKEGQKADFPAGIPECGTDALRFGLCAYMSQGRDINLDVNRILGYRHFCNKLWNATKFALRGLGKGFVPSPTSQPGGHESLVDRWIRSRLTEAVRLSNQGFQAYDFPAVTTAQYSFWLYELCDVYLECLKPVLNGVDQVAAECARQTLYTCLDVGLRLLSPFMPFVTEELFQRLPRRMPQAPPSLCVTPYPEPSECSWKDPEAEAALELALSITRAVRSLRADYNLTRIRPDCFLEVADEATGALASAVSGYVQALASAGVVAVLALGAPAPQGCAVALASDRCSIHLQLQGLVDPARELGKLQAKRVEAQRQAQRLRERRAASGYPVKVPLEVQEADEAKLQQTEAELRKVDEAIALFQKML
binds | CARS (enzyme, UniProt P49589 1-748) MADSSGQQGKGRRVQPQWSPPAGTQPCRLHLYNSLTRNKEVFIPQDGKKVTWYCCGPTVYDASHMGHARSYISFDILRRVLKDYFKFDVFYCMNITDIDDKIIKRARQNHLFEQYREKRPEAAQLLEDVQAALKPFSVKLNETTDPDKKQMLERIQHAVQLATEPLEKAVQSRLTGEEVNSCVEVLLEEAKDLLSDWLDSTLGCDVTDNSIFSKLPKFWEGDFHRDMEALNVLPPDVLTRVSEYVPEIVNFVQKIVDNGYGYVSNGSVYFDTAKFASSEKHSYGKLVPEAVGDQKALQEGEGDLSISADRLSEKRSPNDFALWKASKPGEPSWPCPWGKGRPGWHIECSAMAGTLLGASMDIHGGGFDLRFPHHDNELAQSEAYFENDCWVRYFLHTGHLTIAGCKMSKSLKNFITIKDALKKHSARQLRLAFLMHSWKDTLDYSSNTMESALQYEKFLNEFFLNVKDILRAPVDITGQFEKWGEEEAELNKNFYDKKTAIHKALCDNVDTRTVMEEMRALVSQCNLYMAARKAVRKRPNQALLENIALYLTHMLKIFGAVEEDSSLGFPVGGPGTSLSLEATVMPYLQVLSEFREGVRKIAREQKVPEILQLSDALRDNILPELGVRFEDHEGLPTVVKLVDRNTLLKEREEKRRVEEEKRKKKEEAARRKQEQEAAKLAKMKIPPSEMFLSETDKYSKFDENGLPTHDMEGKELSKGQAKKLKKLFEAQEKLYKEYLQMAQNGSFQ
